Test results as given in patent US20040235096.

Chains of the proteins cited; added tags and fusions are not shown. Chains listed by the source or under a name are the forms on record and can include a tag or linker.
UniProt Q06219, whole entry: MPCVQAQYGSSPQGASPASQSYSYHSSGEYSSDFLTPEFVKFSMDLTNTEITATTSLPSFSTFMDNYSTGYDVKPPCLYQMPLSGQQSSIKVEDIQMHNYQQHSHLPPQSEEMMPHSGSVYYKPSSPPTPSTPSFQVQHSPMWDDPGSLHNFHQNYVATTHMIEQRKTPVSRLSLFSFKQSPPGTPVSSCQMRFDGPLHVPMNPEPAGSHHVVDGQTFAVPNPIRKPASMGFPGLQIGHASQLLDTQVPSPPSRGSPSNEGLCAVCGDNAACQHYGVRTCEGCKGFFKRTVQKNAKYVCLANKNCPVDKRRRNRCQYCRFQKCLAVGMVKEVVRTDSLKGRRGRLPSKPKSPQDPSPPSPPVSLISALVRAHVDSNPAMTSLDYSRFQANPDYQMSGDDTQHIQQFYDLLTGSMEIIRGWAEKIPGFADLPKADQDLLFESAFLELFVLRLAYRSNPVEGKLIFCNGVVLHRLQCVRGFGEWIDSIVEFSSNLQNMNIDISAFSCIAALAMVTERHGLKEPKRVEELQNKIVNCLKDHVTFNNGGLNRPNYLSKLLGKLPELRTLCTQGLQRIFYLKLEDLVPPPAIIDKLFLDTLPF
Nurr1/p57Kip2 complex (Mus musculus), one chain, as listed by the source, chain 1 of 2: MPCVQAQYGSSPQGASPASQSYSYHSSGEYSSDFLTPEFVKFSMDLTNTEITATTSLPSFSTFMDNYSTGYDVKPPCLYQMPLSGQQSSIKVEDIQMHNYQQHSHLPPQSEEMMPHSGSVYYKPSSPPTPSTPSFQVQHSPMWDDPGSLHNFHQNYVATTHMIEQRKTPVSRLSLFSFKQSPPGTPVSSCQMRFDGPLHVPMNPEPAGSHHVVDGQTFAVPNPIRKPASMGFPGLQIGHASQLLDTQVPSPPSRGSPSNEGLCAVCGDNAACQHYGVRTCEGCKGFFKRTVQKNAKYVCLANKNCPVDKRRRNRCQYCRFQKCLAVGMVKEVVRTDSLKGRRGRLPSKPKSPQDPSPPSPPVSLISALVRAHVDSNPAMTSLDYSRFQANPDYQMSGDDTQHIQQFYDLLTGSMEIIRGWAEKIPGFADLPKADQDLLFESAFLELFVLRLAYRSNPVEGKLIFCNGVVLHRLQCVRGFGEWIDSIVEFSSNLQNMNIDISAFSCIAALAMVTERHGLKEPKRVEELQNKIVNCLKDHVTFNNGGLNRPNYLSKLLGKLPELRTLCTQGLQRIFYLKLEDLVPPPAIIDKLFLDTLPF
Nurr1/p57Kip2 complex (Mus musculus), one chain, as listed by the source, chain 2 of 2: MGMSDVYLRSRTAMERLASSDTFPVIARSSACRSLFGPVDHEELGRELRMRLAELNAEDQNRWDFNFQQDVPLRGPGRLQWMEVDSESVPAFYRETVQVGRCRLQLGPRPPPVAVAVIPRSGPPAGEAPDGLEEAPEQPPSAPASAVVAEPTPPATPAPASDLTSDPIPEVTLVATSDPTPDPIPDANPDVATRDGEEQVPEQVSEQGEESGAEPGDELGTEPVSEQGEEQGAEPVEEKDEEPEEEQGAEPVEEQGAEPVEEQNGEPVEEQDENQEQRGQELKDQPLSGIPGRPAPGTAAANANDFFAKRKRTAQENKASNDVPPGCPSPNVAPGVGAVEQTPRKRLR

How the values were obtained:
[1] = target: Nurr1 (Mus musculus) (UniProt Q06219); assay: EMSA; details: shift seen by autoradiography; protein in an extract; protein details: FLAG, nuclear extract of transfected HEK293 cells; label: 32P
[2] = test system: Nurr1/p57Kip2 complex (Mus musculus); assay: EMSA; details: supershift of Nurr1/p57Kip2 complex on NBRE; HA antibody abolished binding of p57Kip2 to NBRE-bound Nurr1; protein in an extract; label: 32P

“AGCTTGAGTTTTAAAAGGTCATGCTCAATTT (double strand) [NBRE probe]”: binds [1]; binds [2].

Results from cells or extracts need not show a direct contact.
